Experimental data reported in CN110305216A.
These are yes or no findings as the source states them, for the method shown. Some binding calls cover weakened binding; strength is not graded here.

What was measured:
[1] = molecular target: 食蟹猴TIM-3.ECD蛋白 (cynomolgus monkey); test: SPR; cynomolgus TIM-3.ECD immobilised on CM5 chip, W3402-z3 as analyte (Table 8 not given)
[2] = molecular target: 细胞表面食蟹猴TIM-3 (full-length cynomolgus TIM-3 on transfected cells) (cynomolgus monkey); test: flow cytometry on transfected cells (legend of Fig. 1)

binding [1]: binds | binding [2]: binds
B1: W3402-2.131.17-z3 (antibody, V domains shown)
VH: QVQLQESGPGLVKPSETLSLTCTVSGFSLTNYGVGWIRQPPGKGLEWIGIMTSGGSTYYNSALRARVTINRDTSKNQFSLKLSSVTAADTAVYYCTRDGTTVETLFDYWGQGTMVTVSS
VL: DIVMTQTPLSLSVTPGQPASISCRSSQSLSDSAGITYLYWYLQKPGQSPQLLIYLASNLGSGVPDRFSGSGSGTDFTLKISRVEAEDVGVYYCMQGIHVPLTFGQGTKLEIK
